Assay results taken from patent publication US20030223992A1 (SCHERING, published 2003).
These are yes or no findings as the source states them, for the method shown. Some results given as binding are weak or reduced against the parent protein; the word gives no strength.

Target: T1, Human SP9155 receptor (human, UniProt Q96P65 1-431)
T1 sequence: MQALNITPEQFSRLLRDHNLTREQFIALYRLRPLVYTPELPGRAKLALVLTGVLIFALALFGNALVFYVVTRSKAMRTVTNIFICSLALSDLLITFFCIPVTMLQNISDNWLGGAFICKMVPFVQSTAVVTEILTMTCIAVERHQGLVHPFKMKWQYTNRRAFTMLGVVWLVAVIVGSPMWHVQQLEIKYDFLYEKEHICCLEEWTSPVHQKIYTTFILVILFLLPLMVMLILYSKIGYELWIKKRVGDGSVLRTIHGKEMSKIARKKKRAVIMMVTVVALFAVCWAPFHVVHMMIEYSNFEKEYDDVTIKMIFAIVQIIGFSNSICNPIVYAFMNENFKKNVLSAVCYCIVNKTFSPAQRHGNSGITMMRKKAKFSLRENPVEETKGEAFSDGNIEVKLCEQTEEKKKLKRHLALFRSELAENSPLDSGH
Experiment: FLIPR Ca2+ flux on HEK293 cells transfected with SP9155 receptor (ligand status inferred from a functional assay)

binding, binds:
TSGPLGNLAEELNGYSRKKGGFSFRF (C-terminal amide) [Human P518], KKGGFSFRF (C-terminal amide) [Human P517], GGFSFRF (C-terminal amide) [Human P52], KGGFSFRF (C-terminal amide) [Human P513], EHAGCRFRF (C-terminal amide) [Human P51]
